# PubChem BioAssay (Tox21)
# Sequences of proteins named here, by UniProt entry; tags and fusion partners are left off.
# UniProt P14416, whole entry, looked up: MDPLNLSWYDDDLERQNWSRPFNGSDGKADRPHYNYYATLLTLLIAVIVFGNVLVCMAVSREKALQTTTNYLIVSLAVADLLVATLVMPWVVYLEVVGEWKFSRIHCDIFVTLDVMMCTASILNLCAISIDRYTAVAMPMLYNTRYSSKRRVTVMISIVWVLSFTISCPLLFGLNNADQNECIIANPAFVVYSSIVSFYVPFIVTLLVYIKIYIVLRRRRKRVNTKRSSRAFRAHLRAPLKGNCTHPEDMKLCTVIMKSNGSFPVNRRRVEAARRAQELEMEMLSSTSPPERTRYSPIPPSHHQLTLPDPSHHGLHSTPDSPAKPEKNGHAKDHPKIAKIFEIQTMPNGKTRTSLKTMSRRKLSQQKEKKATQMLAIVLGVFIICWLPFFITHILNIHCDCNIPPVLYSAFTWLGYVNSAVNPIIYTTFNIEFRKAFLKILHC
# “And” between values parts separate entries of the source, which are not always exact repeats. Equal values may be shown once. Inconclusive means that the source gave no clear call. Such entries were picked first, then a sample of the others. For part of these data: Potencies beside an inconclusive call are fits to weak or partial responses and may not hold up. The source holds several records for some structures; these can differ, active in one and inactive in another. The source made the active and inactive calls. Unless noted, calls come from the whole dose curve.
# How the values were obtained:
# [1] = p53 small molecule agonists, cell-based qHTS assay with human liver microsomes: qHTS cell viability counter screen (AID 1963579); note: nearly all actives have a fitted effect of over 45% in size; note: potency is the fitted concentration of half-maximal effect
# How it was run: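 p53RE-bla cells (4,000/well) were pre-incubated 5 h at 37 C, then given compounds in DMSO plus human liver microsomes (0.5 mg/mL final) and NADPH (0.5 mg/mL final) for 16 h at 37 C. Viability was read by CellTiter-Glo luminescence.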
# [2] = cAMP Responsive Elements (CRE) small molecule antagonists, cell-based qHTS assay (AID 1963591; active = well fitted inhibition curve with a large enough effect in the signal ratio in the repeat runs, not every such curve was filed as active; inconclusive = weak or mixed curves, or effect the other way; the % refers to the signal ratio; note: potency is the fitted concentration of half-maximal effect); conditions: CRE-bla HEK293T, beta-lactamase FRET ratio
# How it was run: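 Beta-lactamase reporter read by FRET substrate (LiveBLAzer B/G) after 2 h at room temperature. CRE-bla HEK293T cells had received compound plus 0.25 uM (final) NKH477 for 3 h at 37 °C.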
# [3] = biological target: Beta-2 adrenergic receptor (Homo sapiens) (UniProt P07550); assay: Adrenergic beta2 receptor (ADRB2) small molecule antagonists, cell-based qHTS assay (AID 1963592); conditions: CHO-ADRB2 cells, isoproterenol-stimulated cAMP HTRF ratio, 0.5 h; activity change, negative = inhibition: at 92.4 µM (top of the series) unless noted; note: nearly all actives have a fitted effect of over 50% in size; note: potency is the fitted concentration of half-maximal effect
# How it was run: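 Cells (CHO, stable ADRB2 overexpression) incubated 18-20hr at 37C; compounds added from DMSO; agonist mix (1nM isoproterenol, 100uM IBMX, 25uM Ro-20-1724) added; 0.5hr RT; d2-cAMP and anti-cAMP-cryptate added; 1hr RT; 665/615 nm read.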
# [4] = biological target: Beta-2 adrenergic receptor (Homo sapiens) (UniProt P07550); assay: Adrenergic beta2 receptor (ADRB2) small molecule agonists, cell-based qHTS assay (AID 1963593); conditions: CHO-ADRB2 cells, cAMP HTRF, 30 min; note: potency is the fitted concentration of half-maximal effect;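 for activation: CHO cells stably overexpressing human ADRB2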
# How it was run: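 CHO cells stably over-expressing ADRB2 were plated overnight at 37C, then dosed with compounds plus a stimulation mix containing 100uM IBMX and 25uM Ro-20-1724 for 0.5hr at room temperature. cAMP was measured by HTRF competition, 1hr.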
# [5] = biological target: D(2) dopamine receptor (Homo sapiens) (UniProt P14416); assay: Dopamine D2 receptor (DRD2) small molecule agonists, cell-based qHTS assay (AID 1963594); conditions: HEK293-DRD2 cAMP HTRF, agonist mode, 30 min; activation: at 92.4 µM (top of the series) unless noted; note: nearly all actives have a fitted effect of over 35% in size
# How it was run: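 HEK293 cells stably expressing DRD2 were cultured 24 h at 37 C, then given Ro20-1724 (0.1 mM final) and compounds for 10 min at room temperature. NKH477 (200nM) was then added for 30 min. cAMP was read by HTRF.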
# [6] = cAMP Responsive Elements (CRE) small molecule agonists, cell-based qHTS assay (AID 1963590); conditions: CRE-bla HEK293T, beta-lactamase FRET ratio, 3 h; activation: at 92.4 µM (top of the series) unless noted; note: potency is the fitted concentration of half-maximal effect
# How it was run: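 HEK 293T CRE-bla, 2,000 cells/well, 18 h preincubation 37 C/5% CO2; cpds (DMSO) pinned, 3 h; LiveBLAzer B/G FRET substrate, 2 h RT.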
# [7] = biological target: D(2) dopamine receptor (Homo sapiens) (UniProt P14416); assay: Dopamine D2 receptor (DRD2) small molecule antagonists, cell-based qHTS assay (AID 1963595; active = well fitted inhibition curve with a large enough effect in the signal ratio in the repeat runs, with a control signal flat; inconclusive = weak or mixed curves, or effect the other way; the % refers to the signal ratio; note: potency is the fitted concentration of half-maximal effect); conditions: HEK293-DRD2 cAMP HTRF antagonist mode; activity change, negative = inhibition: at 92.4 µM (top of the series) unless noted
# How it was run: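 Readout: HTRF cAMP, cAMP-d2 competing with cellular cAMP for anti-cAMP cryptate, read after 1 h. Cells: DRD2-HEK293. Conditions: 0.1 mM Ro20-1724, 12 nM quinpirole, 200 nM NKH477, 30 min RT.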
# [8] = activity change, negative = inhibition: at 92.4 µM (top of the series) unless noted
# [9] = activation: at 92.4 µM (top of the series) unless noted
# % is set by controls: 0 for no effect and ±100 for the full control effect.
structure (smiles),measurement,setting,value
COc1cc2c(cc1N)oc1ccccc12,Potency,[1],active: 33.1 µM
same,Potency,[2]; [8],inactive
same,Potency,[3],"inconclusive: 62.4 µM [inhibitor, single point]"
same,activation,[4]; [9],inconclusive: -1.23%
CCCCOCCO,Potency,[1],inactive
same,Potency,[2]; [8],inactive
same,activation,[4]; [9],inconclusive: 9.82% and inconclusive: -12.1%
same,Potency,[5],inactive
Cc1ncc([C@@H](CCCCCCc2ccc3c(n2)NCCC3)CC(=O)O)cn1,Potency,[1],"inconclusive: 0.576 µM [rising, partial curve, poor fit]"
same,Potency,[2]; [8],active: 0.545 µM
same,Potency,[4]; [9],inactive
C#C[C@]1(O)CC[C@H]2[C@@H]3CCc4cc(OC5CCCC5)ccc4[C@H]3CC[C@@]21C,Potency,[1],"inconclusive: 22.3 µM [rising, partial curve, poor fit]"
same,Potency,[6],"inconclusive: 33.5 µM [rising, partial curve, poor fit]"
same,"activity change, negative = inhibition",[7],inconclusive: -37.1% [at 42.5 µM]
C=C(C)C1CC=C(C)C(=O)C1 (stereo not given),Potency,[1],active: 32.2 µM
same,Potency,[6],inactive
same,Potency,[4]; [9],inactive
C[C@]12CCC(=O)C=C1CC[C@@H]1[C@@H]2C(=O)C[C@@]2(C)[C@H]1CC[C@]2(O)C(=O)CO,Potency,[1],active: 0.408 µM
same,"activity change, negative = inhibition",[2]; at 42.4 µM (top of the series),inconclusive: 17.7%
same,"activity change, negative = inhibition",[2]; at 92.4 µM (top of the series),inconclusive: 24.3%
same,activation,[4]; [9],inconclusive: 28.3% [at 42.5 µM]
same,activation,[4]; at 92.4 µM (top of the series),inactive: -0.554%
same,Potency,[5],inactive
CCS(=O)(=O)CCn1c([N+](=O)[O-])cnc1C,Potency,[1],"inconclusive: 22.3 µM [rising, single point]"
same,Potency,[6],inactive
same,Potency,[4]; [9],"inconclusive: 0.0596 µM [inhibitor, partial curve, poor fit]"
O=C(O)c1cc(C(=O)O)c(C(=O)O)cc1C(=O)O,Potency,[1],"inconclusive: 45.8 µM [cytotoxic, single point]"
same,Potency,[3],inactive
C[C@@H]1CN(c2c(F)c(N)c3c(=O)c(C(=O)O)cn(C4CC4)c3c2F)C[C@H](C)N1,Potency,[1],"inconclusive: 6.14 µM [rising, single point]"
same,"activity change, negative = inhibition",[2]; [8],inactive: -4.06% [at 18.9 µM]
same,activation,[4]; [9],inactive: 13.7% [at 19 µM]
CC1(C)OC(=O)Nc2ccc(Br)cc21,Potency,[1],"inconclusive: 12.6 µM [cytotoxic, single point]"
same,"activity change, negative = inhibition",[2]; [8],inconclusive: -2.45% [at 42.4 µM]
same,activation,[4]; [9],inconclusive: 6.07% [at 42.5 µM]
CC(C)(O)c1ccc(CNC(=O)c2cccnc2Oc2ccc(F)cc2)cc1,Potency,[1],"inconclusive: 45.8 µM [cytotoxic, single point]"
same,activation,[6],inconclusive: 13.8%
same,Potency,[4]; [9],"inconclusive: 27.3 µM [activator, single point]"
CCOCC(O)COc1ccc(NC(=O)CC[S+](C)C)cc1 (stereo not given),Potency,[1],"inconclusive: 2.51 µM [rising, partial curve, poor fit]"
same,Potency,[2]; [8],inactive
same,Potency,[4]; [9],inactive
S=C([S-])NCCNC(=S)[S-].S=C([S-])NCCNC(=S)[S-].[Mn+2].[Zn+2],Potency,[1],"inconclusive: 1.58 µM [rising, full curve, poor fit]"
same,Potency,[2]; [8],inconclusive: 21.1 µM [activator]
same,activation,[4]; [9],inconclusive: 0.44% [at 42.5 µM]
same,"activity change, negative = inhibition",[7],inconclusive: -19.5% [at 42.5 µM]
O=S1(=O)CCCO1,Potency,[1],inactive
same,Potency,[2]; [8],inactive
same,"activity change, negative = inhibition",[3],inconclusive: 0.829%
same,Potency,[4]; [9],inactive
CC(C)CCCCCCc1ccc(OCCOCCO)cc1,Potency,[1],"inconclusive: 81.7 µM [cytotoxic, single point]"
same,Potency,[6],inactive
same,Potency,[4]; [9],inactive
CCCCCCCCCCCC,Potency,[1],"inconclusive: 51.3 µM [cytotoxic, single point]"
same,"activity change, negative = inhibition",[3],inconclusive: -30.8%
same,Potency,[4]; [9],"inconclusive: 0.243 µM [inhibitor, single point]"
OC[C@@H](O)[C@@H](O)[C@H](O)[C@H](O)CO,Potency,[1],"inconclusive: 19.9 µM [rising, partial curve, poor fit]"
same,Potency,[2]; [8],inactive
same,Potency,[4]; [9],"inactive and inconclusive: 9.69 µM [inhibitor, partial curve, poor fit]"
same,Potency,[5],inactive
C#CC(C)N(C)C(=O)Nc1ccc(Cl)cc1 (stereo not given),Potency,[1],inactive
same,"activity change, negative = inhibition",[2]; [8],inconclusive: 0.309%
same,Potency,[4]; [9],inactive
Nc1nc2ncc(CNc3ccc(C(=O)N[C@@H](CCC(=O)O)C(=O)O)cc3)nc2c(=O)[nH]1,Potency,[1],"inconclusive: 2.23 µM [rising, single point]"
same,Potency,[2]; [8],inactive
same,Potency,[4]; [9],inactive
same,Potency,[7],"inconclusive: 9.69 µM [cytotoxic, partial curve, poor fit]"
COc1cc2c(cc1OC)C(=O)CC2,Potency,[1],inactive
same,Potency,[2]; [8],inactive
same,activation,[4]; [9],inconclusive: 6.25% [at 42.5 µM]
CCCCCC,Potency,[1],inactive
same,Potency,[2]; [8],inactive
CC1(C)S[C@@H]2[C@H](NC(=O)C(C(=O)O)c3ccccc3)C(=O)N2[C@H]1C(=O)O (stereo not given in full),Potency,[1],active: 0.177 µM
same,Potency,[3],inconclusive: 0.0007 µM
Cc1c[nH]c2ccccc12,Potency,[1],"inconclusive: 22.3 µM [rising, single point]"
same,Potency,[3],inactive
same,Potency,[4]; [9],inactive

# A different layout for some results above:
structure (smiles) | measurement | setting | value
CC1(C)OC(=O)Nc2ccc(Br)cc21 | activity change, negative = inhibition | [2]; [8] | inconclusive: -2.45% [at 42.4 µM]
OC[C@@H](O)[C@@H](O)[C@H](O)[C@H](O)CO | Potency | [4]; [9] | inactive and inconclusive: 9.69 µM [inhibitor, partial curve, poor fit]

# Reformatted: entries from further up
structure (smiles) | measurement | setting | value
C[C@@H]1CN(c2c(F)c(N)c3c(=O)c(C(=O)O)cn(C4CC4)c3c2F)C[C@H](C)N1 | activation | [4]; [9] | inactive: 13.7% [at 19 µM]
OC[C@@H](O)[C@@H](O)[C@H](O)[C@H](O)CO | Potency | [4]; [9] | inactive and inconclusive: 9.69 µM [inhibitor, partial curve, poor fit]
